Data: US20240082228A1, “SARS-COV-2 THERAPEUTICS” (priority 2021, published 2024)
Values joined by “and” are separate entries in the source; they are usually repeats but may differ in a detail not shown here. Equal values may be shown once.

Test system: SARS-CoV-2; call rule not given here
Type: cell-based
[1] = 1 uM, single replicate, relative to negative control DMSO
[2] = 5 uM, single replicate, relative to negative control DMSO

Compound: Cc1ccccc1-n1c(Cn2nc(-c3cccc(O)c3)c3c(N)ncnc32)nc2cccc(C)c2c1=O [PIK-294, pik-294]
- HIT (2 Std, 1 uM) (1 uM): HIT
- Average Infection (1 uM) (1 uM, average log2FC infection (n=3) relative to DMSO): −0.485
- % Infection (1 uM) (1 uM, single replicate of triplicate): 18.59% and 21.04% and 16.9%
- Normalized Infection (1 uM) [1]: 0.7078 and 0.8011 and 0.6433
- log2FC Infection (1 uM) [1]: −0.4986 and −0.32 and −0.6365
- Average Infection (5 uM) (5 uM, average log2FC infection (n=3) relative to DMSO): −0.3549
- % Infection (5 uM) (5 uM, single replicate of triplicate): 15.69% and 11.58% and 9.607%
- Normalized Infection (5 uM) [2]: 1.019 and 0.7518 and 0.6239
- log2FC Infection (5 uM) [2]: 0.02752 and −0.4115 and −0.6806
- HIT (overall, 1 or 5 uM): Yes
